In PMC5814163:
These are yes or no findings as the source states them, for the method shown. Binding seen in cells or lysates may run through a third protein. Some binding calls cover weakened binding; strength is not graded here.

Amino acid sequences for entries named in this document (tags omitted).
UniProt P52630: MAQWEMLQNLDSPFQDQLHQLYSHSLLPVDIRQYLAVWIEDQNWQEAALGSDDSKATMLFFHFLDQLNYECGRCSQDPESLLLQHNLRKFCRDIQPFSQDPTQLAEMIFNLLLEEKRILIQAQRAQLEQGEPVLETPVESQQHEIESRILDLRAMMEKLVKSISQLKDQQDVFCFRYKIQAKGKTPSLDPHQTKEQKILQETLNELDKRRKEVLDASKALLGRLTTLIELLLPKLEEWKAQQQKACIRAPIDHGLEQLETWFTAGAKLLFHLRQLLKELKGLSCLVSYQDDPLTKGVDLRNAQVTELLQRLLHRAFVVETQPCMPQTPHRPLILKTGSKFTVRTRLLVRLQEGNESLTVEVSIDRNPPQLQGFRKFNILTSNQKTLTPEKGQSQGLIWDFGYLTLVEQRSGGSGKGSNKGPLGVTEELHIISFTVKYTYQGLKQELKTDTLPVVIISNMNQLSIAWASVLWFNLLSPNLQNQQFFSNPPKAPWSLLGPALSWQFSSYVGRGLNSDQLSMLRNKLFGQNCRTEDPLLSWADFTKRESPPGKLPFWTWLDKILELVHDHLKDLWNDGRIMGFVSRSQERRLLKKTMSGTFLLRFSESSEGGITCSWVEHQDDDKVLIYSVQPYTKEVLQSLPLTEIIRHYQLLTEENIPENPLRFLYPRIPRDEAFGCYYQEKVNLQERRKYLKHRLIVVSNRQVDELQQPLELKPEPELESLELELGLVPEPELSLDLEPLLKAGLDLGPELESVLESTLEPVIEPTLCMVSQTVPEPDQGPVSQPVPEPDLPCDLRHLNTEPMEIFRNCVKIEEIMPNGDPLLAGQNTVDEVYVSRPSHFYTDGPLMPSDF
UniProt P42224: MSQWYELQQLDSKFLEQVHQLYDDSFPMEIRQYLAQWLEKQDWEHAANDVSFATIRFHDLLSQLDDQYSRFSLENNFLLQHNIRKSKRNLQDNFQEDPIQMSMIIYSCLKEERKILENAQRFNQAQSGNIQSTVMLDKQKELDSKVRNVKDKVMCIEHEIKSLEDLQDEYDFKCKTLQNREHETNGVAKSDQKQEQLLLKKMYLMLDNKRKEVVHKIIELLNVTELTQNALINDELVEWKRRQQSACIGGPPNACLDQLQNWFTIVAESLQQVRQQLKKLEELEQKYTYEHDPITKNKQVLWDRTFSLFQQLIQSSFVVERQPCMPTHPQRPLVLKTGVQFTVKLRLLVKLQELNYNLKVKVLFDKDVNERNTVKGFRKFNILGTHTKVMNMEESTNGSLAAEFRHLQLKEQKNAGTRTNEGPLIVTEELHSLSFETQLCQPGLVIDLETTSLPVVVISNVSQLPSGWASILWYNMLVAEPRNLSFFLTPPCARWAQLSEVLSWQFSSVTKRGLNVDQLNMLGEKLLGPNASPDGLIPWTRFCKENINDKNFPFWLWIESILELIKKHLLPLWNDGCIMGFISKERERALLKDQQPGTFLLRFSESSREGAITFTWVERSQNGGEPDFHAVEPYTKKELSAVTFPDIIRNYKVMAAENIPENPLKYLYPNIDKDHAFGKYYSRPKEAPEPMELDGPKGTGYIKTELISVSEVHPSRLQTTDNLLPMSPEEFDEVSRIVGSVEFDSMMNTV

Tests used:
[1] = biological target: NS5A of the Con1 strain expressed from the vector pCAG/5ACon1 (hepatitis C virus genotype 1b, Con1 strain) (UniProt Q9WMX2); test: co-IP; HepaRG cells transfected with NS5A expression vectors, 48 h, then IFN-α for 30 min; lysates immunoprecipitated with an anti-NS5A antibody; immunoblot with anti-STAT1, anti-pSTAT1 and anti-STAT2 antibodies
[2] = biological target: STAT2 (human (endogenous in HepaRG)) (UniProt P52630); test: co-IP; HepaRG cells transfected with NS5A expression vectors, 48 h, then IFN-α for 30 min; lysates immunoprecipitated with anti-STAT1 or anti-STAT2 antibody; immunoblot for NS5A
[3] = biological target: STAT1 (human (endogenous in HepaRG)) (UniProt P42224); test: as above

Substance	binding [1]	binding [2]	binding [3]
STAT2 (from UniProt P52630 1-851)	no binding		
NS5A of the Con1 strain expressed from the vector pCAG/5ACon1 (from UniProt Q9WMX2 1973-2419)		no binding	binds
STAT1 (from UniProt P42224 1-750)	binds		
